PubChem BioAssay AID1224826, NIAID | 2016
The deposit covers about 17,000 reagents; below is a random part of them. Of all reagents, about 1,110 (6.6%) were called active. 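Active means lowered or raised reporter signal; replicate intensities are raw and not normalised per plate.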 Entries without a mark were called inactive. The numbers tell different reagents against one gene apart. A reagent listed more than once was tested more than once; the source does not tell the runs apart.

- Purpose: 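Knock-downs that raise or lower Tnf reporter signal after endotoxin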 (primary screen)
- Cell system: RAW264.7 G9 macrophages from mouse bearing reporters for p65 (GFP) and the Tnf promoter (mCherry)
- Knock-down reagent: siRNA pool against mouse genes, 100 nM
- Duration: 16 h of LPS stimulation, after 2 days of siRNA transfection
- Treatment: bacterial lipopolysaccharide (Salmonella minnesota R595), 10 ng/ml
- Detection: 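Imaged Tnf reporter mCherry in nuclei, minus background, normalised per plate to the median and expressed as robust z-scores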
- Direction: Tnf reporter robust z-score: higher = stronger Tnf promoter reporter signal after LPS; Tnf reporter intensity: higher = stronger Tnf promoter reporter signal
- Active means: 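Called active when robust z-score is at most -1.3, matching the median of the Tlr4 knock-down control, or over 3; control wells and wells with under 50 cells never active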
- Meaning of the calls: active = Tnf reporter clearly lowered or raised; inactive = no clear change in Tnf reporter

no.	target	pool no.	Tnf reporter robust z-score	fewer than 50 cells in well	Tnf reporter intensity, replicate 1	Tnf reporter intensity, replicate 2
1	B4galt6 (GeneID 56386)	1	0.29	enough cells in well	238	216
2	1700010H22Rik (GeneID 75500)	1		fewer than 50 cells per well; well left out of calls	185	80.4
3	Catsper4 (GeneID 329954)	1	-0.19	enough cells in well	143	143
4	Magi3 (GeneID 99470)	1	-1.15	enough cells in well	116	93
5	Magi3 (GeneID 99470)	1		fewer than 50 cells per well; well left out of calls	132	57.1
6	Bcl2a1a (GeneID 12044)	1		fewer than 50 cells per well; well left out of calls	10.8	129
7	Tmsb15l (GeneID 399591)	1	-0.43	enough cells in well	178	70.7
8	Tspan33 (GeneID 232670)	1	-0.54	enough cells in well	270	47.4
9	Slc6a15 (GeneID 103098)	1	0.09	enough cells in well	226	153
10	Slc6a15 (GeneID 103098)	2		fewer than 50 cells per well; well left out of calls	55.3	32.5
11	Eif5a (GeneID 276770)	1	-1.11	enough cells in well	121	49.7
12	Tbrg4 (GeneID 21379)	1	-0.76	enough cells in well	197	84.2
13	Rnf186 (GeneID 66825)	1	-0.56	enough cells in well	130	170
14	4930474M22Rik (GeneID 74917)	1	-0.27	enough cells in well	174	65.9
15	Prr15l (GeneID 217138)	1	1.17	enough cells in well	256	325
16	Fyco1 (GeneID 17281)	1	2.19	enough cells in well	339	299
17	Prm2 (GeneID 19119)	1	-0.84	enough cells in well	108	78.3
18	Hnrnpa1 (GeneID 15382)	1	-1.86 (active)	enough cells in well	105	51.7
19	Dcun1d1 (GeneID 114893)	1	-0.02	enough cells in well	271	108
20	Trim2 (GeneID 80890)	1	4.34 (active)	enough cells in well	270	247
21	Pigx (GeneID 72084)	1	-0.49	enough cells in well	130	40.6
22	Reck (GeneID 53614)	1	0.01	enough cells in well	362	170
23	Cd177 (GeneID 68891)	1	0.33	enough cells in well	214	103
24	Cdk2ap2 (GeneID 52004)	1	-0.08	enough cells in well	249	197
25	Dnaja3 (GeneID 83945)	1	0.72	enough cells in well	223	148
26	Pdgfd (GeneID 71785)	1	-0.91	enough cells in well	114	80.7
27	Rtn4r (GeneID 65079)	1	-0.15	enough cells in well	312	181
28	Mospd1 (GeneID 70380)	1	0.34	enough cells in well	278	104
29	Adora2b (GeneID 11541)	1	-0.15	enough cells in well	164	351
30	Maf1 (GeneID 68877)	1	2.78	enough cells in well	360	291
31	Gldc (GeneID 104174)	1	-0.36	enough cells in well	204	170
32	Zfp57 (GeneID 22715)	1	-1.02	enough cells in well	87.9	75
33	Tmem175 (GeneID 72392)	1		fewer than 50 cells per well; well left out of calls	142	58
34	Mip (GeneID 17339)	1	-0.37	enough cells in well	247	166
35	Zfp287 (GeneID 170740)	1	-0.32	enough cells in well	79	113
36	Fam78a (GeneID 241303)	1	2.01	enough cells in well	298	245
37	Cpsf1 (GeneID 94230)	1	0.87	enough cells in well	241	226
38	Dlg5 (GeneID 71228)	1	-0.47	enough cells in well	229	140
39	St8sia1 (GeneID 20449)	1	-0.18	enough cells in well	91.8	98.7
40	St8sia1 (GeneID 20449)	2	0.1	enough cells in well	207	173
